According to PMC12346347:
Results are given in words; binding and its absence hold for the method and conditions named. Binding seen in cells or lysates may run through a third protein. A yes stands for co-enrichment or nearness to the bait. Other partners may have been found. Sequences can lack the tags named with a protein.

Sequences of proteins named here, by UniProt entry; tags and fusion partners are left off.
UniProt O00139: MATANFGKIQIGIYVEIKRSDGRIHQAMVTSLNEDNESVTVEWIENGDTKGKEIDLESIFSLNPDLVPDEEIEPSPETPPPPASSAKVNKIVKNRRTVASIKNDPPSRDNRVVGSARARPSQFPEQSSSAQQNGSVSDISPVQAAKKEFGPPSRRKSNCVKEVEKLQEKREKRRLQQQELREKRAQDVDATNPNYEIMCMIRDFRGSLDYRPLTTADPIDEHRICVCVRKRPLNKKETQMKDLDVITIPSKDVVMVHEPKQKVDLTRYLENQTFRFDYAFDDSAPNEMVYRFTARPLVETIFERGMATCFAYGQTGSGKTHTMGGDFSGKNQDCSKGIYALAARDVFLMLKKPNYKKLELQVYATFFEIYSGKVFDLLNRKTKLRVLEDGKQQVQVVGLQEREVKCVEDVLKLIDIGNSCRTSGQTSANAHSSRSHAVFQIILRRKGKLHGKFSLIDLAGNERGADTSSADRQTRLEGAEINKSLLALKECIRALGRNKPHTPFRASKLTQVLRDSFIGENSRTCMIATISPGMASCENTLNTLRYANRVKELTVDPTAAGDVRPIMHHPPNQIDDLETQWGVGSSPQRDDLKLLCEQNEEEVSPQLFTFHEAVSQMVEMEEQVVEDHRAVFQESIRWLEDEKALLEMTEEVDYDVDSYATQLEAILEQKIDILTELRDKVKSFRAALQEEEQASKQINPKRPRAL
UniProt Q15154: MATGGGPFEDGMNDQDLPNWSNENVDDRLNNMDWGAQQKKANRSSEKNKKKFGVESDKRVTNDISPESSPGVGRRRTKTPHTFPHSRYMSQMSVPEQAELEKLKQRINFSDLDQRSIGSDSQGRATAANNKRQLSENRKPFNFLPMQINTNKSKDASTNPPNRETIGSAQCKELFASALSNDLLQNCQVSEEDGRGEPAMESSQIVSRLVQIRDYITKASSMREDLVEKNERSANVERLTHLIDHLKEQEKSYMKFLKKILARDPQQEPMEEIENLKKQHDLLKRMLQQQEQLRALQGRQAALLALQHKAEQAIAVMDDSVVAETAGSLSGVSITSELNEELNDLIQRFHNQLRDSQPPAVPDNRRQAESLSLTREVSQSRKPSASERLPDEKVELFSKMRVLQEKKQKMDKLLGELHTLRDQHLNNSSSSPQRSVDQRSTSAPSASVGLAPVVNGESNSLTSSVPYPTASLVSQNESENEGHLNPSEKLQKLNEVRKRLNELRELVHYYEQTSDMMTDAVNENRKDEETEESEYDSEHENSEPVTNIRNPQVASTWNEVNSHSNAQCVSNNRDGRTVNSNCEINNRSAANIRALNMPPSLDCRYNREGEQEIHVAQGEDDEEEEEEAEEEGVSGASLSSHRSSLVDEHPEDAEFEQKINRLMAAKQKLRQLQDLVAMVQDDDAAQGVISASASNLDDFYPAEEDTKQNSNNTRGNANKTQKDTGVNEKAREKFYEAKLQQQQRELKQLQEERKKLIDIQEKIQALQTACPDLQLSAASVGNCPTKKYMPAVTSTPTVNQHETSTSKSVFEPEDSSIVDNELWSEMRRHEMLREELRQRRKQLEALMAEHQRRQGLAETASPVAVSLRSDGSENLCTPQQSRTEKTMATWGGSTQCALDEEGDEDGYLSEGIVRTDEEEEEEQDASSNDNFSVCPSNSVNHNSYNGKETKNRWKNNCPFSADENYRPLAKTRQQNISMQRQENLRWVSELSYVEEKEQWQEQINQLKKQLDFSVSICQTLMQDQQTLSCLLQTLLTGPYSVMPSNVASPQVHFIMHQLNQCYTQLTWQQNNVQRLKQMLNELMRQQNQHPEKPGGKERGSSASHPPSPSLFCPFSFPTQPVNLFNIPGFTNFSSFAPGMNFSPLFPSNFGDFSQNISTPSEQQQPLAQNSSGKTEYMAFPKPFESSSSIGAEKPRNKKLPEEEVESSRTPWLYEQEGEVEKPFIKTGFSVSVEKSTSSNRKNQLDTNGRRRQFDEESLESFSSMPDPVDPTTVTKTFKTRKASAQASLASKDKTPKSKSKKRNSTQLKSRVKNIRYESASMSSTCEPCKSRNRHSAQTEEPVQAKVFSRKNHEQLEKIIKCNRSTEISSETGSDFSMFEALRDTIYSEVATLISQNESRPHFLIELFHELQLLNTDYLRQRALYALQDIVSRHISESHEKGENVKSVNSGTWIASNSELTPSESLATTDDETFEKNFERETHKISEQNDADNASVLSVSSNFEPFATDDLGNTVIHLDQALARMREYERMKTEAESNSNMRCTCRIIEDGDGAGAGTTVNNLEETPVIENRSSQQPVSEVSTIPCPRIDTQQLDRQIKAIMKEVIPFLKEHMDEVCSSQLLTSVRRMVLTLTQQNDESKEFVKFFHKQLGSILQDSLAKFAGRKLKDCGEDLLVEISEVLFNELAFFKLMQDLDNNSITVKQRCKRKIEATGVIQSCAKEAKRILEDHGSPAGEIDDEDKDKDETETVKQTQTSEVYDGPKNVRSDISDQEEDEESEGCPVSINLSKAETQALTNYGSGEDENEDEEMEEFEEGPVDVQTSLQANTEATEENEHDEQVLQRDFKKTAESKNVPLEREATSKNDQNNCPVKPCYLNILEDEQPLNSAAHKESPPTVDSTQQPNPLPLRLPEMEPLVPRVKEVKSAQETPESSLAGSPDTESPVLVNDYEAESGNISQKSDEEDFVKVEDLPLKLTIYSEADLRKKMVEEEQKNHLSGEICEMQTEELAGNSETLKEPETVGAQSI

Target: T1, Flag-tagged full-length human SDCCAG8 (human) (UniProt Q86SQ7)
T1 sequence: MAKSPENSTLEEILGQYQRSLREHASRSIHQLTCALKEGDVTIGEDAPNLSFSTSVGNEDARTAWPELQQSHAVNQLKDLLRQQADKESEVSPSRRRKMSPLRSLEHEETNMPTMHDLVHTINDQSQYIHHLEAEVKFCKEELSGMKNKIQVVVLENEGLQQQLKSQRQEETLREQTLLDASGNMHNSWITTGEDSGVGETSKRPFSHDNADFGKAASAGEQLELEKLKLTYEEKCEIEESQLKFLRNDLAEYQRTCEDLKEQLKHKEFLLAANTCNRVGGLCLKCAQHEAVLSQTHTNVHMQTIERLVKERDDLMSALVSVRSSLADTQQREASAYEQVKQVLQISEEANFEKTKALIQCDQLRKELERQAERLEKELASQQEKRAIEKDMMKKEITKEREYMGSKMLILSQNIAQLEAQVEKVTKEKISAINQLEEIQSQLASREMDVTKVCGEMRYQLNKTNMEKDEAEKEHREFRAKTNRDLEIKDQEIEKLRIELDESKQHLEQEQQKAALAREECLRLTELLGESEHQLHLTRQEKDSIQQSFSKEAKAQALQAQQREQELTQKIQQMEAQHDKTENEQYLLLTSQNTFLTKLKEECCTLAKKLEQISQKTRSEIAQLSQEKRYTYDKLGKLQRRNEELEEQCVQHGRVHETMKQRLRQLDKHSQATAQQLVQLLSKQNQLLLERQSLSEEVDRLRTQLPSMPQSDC
Experiment: affinity purification with mass spectrometry; anti-Flag magnetic beads on lysates of HEK293T cells expressing Flag-hSDCCAG8-FL or Flag-hSDCCAG8-Mut; lysis buffer 0.2% Triton-X100, 0.05 mmol/L DTT, protease inhibitors; overnight at 4 °C; 5 washes with TBS; eluates analysed by MS (peptide confidence score > 10, ≥2 unique peptides)

Substance	binding
KIF2a, endogenous in HEK293T cells (from UniProt O00139 1-706)	binds
pericentriolar material 1 (PCM1), endogenous in HEK293T cells (from UniProt Q15154 1-2024)	binds
